This is one part of the list.
What follows are targets tested with COc1cc2ncnc(Nc3ccc(F)c(Cl)c3)c2cc1OCCCN1CCOCC1 [gefitinib] (assay: log2 fold change, soluble protein after heating vs DMSO (PISA); higher = thermal stabilisation; K562 cells, 10 uM, 30 min; active = over 0.2 and 3.5 SD of the protein, either way, in both replicates (recomputed)).
Summary of the method: (§1)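 K562 cells at 2×10^6 cells/mL were given 10 μM compound for 30 min. Aliquots then went through 3 min of heating across 48°C-58°C, were pooled, and were extracted in PBS with 0.5% NP-40 at 4°C, and the supernatant after 21,000xg for 90 min was quantified by TMTpro 16plex LC-MS/MS with channel sums equalised. Thermal stability relative to control samples, from duplicates, is given as log2 fold change.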

Protein sequences, listed by entry. Tags and fused reporters are not part of them. Lines headed by an entry give the natural chain unless they say otherwise; changes in a name come on top.
UniProt P34931, whole entry, looked up: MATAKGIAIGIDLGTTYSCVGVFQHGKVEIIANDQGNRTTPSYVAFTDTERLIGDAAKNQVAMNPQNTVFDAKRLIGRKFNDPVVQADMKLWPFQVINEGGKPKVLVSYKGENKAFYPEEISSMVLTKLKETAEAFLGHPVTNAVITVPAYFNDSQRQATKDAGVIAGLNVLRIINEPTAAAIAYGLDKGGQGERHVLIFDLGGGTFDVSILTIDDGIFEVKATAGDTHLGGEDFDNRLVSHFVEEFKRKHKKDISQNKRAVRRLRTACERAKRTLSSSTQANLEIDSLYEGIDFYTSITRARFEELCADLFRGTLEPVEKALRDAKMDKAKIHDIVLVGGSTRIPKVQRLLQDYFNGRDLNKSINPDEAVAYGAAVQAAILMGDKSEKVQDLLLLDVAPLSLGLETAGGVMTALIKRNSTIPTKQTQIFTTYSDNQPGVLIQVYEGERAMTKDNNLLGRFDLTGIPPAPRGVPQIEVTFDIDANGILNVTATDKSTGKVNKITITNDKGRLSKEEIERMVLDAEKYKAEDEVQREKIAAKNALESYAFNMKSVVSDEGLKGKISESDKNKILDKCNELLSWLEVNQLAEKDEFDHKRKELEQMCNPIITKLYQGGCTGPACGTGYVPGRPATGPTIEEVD
UniProt P08238, whole entry, looked up: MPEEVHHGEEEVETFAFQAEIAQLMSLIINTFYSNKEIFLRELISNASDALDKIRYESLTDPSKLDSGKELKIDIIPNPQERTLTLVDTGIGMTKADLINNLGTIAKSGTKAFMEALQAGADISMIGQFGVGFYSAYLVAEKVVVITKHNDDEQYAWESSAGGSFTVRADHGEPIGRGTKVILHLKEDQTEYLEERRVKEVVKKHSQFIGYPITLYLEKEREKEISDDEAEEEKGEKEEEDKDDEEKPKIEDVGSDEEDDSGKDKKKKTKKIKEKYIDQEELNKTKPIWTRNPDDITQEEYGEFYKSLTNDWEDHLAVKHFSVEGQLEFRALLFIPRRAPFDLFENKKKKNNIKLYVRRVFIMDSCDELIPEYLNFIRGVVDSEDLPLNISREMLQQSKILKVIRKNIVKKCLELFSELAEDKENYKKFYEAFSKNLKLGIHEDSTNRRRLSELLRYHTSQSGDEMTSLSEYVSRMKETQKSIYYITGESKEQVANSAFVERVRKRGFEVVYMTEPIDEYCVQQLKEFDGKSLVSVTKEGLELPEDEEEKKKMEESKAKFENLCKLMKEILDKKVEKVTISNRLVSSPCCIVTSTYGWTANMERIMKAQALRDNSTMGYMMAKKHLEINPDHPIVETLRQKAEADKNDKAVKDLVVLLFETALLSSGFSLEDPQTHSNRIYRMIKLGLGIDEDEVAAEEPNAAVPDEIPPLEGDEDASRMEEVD
UniProt Q92598: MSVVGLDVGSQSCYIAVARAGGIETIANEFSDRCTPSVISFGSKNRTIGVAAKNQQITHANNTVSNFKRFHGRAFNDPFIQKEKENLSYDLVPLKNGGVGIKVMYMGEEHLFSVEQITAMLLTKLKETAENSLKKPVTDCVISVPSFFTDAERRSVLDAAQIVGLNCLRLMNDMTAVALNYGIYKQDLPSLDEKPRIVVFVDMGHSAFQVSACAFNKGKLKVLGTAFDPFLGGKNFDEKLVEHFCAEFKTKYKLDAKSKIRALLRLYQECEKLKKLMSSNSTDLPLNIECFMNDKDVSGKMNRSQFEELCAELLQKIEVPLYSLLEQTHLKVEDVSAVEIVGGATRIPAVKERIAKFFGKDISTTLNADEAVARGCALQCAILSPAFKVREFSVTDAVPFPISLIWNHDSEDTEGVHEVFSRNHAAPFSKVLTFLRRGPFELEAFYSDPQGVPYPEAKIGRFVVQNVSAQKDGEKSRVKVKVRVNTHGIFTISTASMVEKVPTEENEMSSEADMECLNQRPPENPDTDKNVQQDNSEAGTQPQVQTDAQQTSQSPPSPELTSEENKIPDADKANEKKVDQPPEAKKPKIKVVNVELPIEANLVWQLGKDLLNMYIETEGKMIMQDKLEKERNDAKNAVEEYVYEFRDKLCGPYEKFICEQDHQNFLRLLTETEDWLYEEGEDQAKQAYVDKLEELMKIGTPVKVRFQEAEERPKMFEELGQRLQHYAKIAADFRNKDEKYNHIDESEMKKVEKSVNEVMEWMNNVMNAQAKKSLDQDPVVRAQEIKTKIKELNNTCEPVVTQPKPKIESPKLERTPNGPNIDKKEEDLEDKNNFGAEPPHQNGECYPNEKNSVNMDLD
UniProt Q00839, whole entry, looked up: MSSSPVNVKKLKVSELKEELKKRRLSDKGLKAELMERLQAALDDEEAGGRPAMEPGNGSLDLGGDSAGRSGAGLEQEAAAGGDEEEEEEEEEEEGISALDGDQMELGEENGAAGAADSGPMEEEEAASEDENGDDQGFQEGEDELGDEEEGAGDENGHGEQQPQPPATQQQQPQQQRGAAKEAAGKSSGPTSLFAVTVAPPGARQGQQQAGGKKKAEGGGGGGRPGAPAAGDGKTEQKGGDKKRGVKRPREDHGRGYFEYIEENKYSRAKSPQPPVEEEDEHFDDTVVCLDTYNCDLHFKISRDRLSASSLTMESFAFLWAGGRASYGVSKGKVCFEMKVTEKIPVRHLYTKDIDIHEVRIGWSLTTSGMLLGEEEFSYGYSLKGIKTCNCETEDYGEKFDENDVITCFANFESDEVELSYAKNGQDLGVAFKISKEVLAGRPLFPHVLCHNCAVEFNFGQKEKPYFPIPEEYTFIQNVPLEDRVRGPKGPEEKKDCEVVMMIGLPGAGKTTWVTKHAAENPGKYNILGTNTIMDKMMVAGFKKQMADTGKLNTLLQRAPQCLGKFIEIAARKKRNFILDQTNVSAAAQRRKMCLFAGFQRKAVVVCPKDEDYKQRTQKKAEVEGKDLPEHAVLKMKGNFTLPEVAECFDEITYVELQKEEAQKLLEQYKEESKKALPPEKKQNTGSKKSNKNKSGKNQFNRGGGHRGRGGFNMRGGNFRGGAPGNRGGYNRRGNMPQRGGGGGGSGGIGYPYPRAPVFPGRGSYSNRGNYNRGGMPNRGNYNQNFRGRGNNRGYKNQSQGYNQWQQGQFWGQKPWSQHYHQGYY
UniProt Q86YM7: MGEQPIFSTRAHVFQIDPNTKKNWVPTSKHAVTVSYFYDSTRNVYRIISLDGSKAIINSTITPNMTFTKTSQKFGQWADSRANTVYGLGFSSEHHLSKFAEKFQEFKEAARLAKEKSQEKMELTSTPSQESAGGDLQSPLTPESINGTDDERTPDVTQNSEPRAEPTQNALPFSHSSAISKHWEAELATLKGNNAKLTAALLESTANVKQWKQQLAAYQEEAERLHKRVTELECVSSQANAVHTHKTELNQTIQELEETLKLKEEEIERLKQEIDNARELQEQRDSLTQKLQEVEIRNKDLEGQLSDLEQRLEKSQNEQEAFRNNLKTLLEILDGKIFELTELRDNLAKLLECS
UniProt Q0VDF9: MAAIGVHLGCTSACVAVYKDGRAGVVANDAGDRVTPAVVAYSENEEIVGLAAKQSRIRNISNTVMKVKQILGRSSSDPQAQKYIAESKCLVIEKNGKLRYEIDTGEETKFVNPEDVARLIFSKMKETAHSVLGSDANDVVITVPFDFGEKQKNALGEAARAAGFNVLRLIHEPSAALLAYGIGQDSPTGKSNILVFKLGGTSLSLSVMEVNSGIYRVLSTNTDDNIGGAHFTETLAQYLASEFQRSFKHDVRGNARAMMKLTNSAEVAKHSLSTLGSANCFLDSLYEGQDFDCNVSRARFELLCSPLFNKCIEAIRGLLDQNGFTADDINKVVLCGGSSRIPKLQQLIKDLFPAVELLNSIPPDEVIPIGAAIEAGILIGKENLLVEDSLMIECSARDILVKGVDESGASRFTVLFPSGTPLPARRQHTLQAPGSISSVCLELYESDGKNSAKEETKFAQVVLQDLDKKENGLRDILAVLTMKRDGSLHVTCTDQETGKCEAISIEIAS
UniProt Q9BUP3: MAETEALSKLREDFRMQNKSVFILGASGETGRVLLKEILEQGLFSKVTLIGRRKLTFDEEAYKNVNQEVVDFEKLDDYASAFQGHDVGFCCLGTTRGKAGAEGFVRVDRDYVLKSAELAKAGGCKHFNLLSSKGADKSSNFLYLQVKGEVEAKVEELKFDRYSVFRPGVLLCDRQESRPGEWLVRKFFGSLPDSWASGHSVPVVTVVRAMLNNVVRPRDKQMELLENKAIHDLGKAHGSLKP
UniProt P52789: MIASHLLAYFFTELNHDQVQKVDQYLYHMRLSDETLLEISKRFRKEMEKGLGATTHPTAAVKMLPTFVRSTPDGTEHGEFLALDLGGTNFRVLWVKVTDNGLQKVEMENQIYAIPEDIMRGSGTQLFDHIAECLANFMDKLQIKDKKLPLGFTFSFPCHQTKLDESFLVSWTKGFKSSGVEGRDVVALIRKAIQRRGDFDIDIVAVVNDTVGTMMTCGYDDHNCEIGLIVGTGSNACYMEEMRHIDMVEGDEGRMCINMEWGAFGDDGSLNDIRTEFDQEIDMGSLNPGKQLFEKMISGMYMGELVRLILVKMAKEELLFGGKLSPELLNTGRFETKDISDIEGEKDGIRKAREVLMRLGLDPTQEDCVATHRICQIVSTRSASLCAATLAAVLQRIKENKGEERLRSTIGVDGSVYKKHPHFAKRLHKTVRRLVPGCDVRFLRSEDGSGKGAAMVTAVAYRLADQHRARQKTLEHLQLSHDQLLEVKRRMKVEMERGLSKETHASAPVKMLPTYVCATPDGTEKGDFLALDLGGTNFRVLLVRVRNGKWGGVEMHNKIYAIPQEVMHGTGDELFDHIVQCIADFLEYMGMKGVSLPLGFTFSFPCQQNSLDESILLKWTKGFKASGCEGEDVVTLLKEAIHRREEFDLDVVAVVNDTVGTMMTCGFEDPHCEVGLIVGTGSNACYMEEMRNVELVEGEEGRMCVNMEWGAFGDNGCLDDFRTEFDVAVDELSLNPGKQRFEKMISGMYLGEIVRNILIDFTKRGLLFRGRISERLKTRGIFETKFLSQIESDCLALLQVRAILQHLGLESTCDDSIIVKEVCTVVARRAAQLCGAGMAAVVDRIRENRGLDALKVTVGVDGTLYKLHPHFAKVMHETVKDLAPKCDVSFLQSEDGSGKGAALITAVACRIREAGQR
UniProt Q14103: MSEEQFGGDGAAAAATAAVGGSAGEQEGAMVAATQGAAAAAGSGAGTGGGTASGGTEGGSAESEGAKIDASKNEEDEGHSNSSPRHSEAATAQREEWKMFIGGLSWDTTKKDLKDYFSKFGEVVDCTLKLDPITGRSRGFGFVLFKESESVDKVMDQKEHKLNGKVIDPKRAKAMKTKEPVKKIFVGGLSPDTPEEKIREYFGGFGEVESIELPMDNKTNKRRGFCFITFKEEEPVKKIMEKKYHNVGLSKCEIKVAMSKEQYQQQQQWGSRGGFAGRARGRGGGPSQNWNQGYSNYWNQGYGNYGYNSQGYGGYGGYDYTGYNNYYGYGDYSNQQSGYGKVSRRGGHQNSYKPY
UniProt O95757: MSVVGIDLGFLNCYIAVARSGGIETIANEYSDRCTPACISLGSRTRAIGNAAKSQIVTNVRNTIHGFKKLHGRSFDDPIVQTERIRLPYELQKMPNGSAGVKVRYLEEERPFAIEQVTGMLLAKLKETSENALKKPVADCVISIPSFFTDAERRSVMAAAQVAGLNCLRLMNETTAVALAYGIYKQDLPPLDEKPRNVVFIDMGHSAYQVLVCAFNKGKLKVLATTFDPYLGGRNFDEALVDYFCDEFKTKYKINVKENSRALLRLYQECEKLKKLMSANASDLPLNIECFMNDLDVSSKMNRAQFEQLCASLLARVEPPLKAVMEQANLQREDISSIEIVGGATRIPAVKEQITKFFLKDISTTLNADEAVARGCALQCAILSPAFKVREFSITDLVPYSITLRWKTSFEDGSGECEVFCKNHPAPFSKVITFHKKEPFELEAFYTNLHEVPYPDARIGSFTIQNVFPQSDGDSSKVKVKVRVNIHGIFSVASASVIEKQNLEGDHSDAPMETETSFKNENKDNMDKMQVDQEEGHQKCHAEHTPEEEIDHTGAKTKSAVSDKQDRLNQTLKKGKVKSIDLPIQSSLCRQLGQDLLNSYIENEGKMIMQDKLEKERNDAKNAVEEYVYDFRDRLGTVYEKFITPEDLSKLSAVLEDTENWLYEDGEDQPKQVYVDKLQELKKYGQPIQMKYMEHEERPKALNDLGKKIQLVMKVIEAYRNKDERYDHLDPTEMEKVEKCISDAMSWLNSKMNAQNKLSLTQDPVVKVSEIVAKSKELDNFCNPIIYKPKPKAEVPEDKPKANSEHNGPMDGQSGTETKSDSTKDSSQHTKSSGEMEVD
UniProt P30519: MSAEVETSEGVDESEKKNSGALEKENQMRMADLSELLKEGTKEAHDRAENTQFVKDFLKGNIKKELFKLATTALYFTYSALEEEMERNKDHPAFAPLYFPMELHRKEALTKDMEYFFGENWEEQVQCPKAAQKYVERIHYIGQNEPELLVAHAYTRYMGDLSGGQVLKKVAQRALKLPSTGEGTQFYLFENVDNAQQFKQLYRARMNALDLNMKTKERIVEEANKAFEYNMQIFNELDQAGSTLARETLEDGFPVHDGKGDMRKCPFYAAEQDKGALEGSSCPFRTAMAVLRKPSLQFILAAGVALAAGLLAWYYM

log2 fold change, inactive:
HNRNPLL (UniProt Q8WVV9) 0.073, HYOU1 (UniProt Q9Y4L1) -0.001, HSPA1L (UniProt P34931) -0.046, HSP90AB1 (UniProt P08238) -0.006, HMGA1 (UniProt P17096) -0.071, HMGCR isoform 3 (UniProt P04035) 0.01, HSPH1 (UniProt Q92598) 0.011, HIST2H2BF isoform 2 (UniProt Q5QNW6) 0.053, HNRNPU (UniProt Q00839) -0.045, HINT2 (UniProt Q9BX68) 0.065, HOMER1 (UniProt Q86YM7) 0.086, HSPB11 (UniProt Q9Y547) 0.023, HKDC1 (UniProt Q2TB90) 0.026, HUWE1 (UniProt Q7Z6Z7) -0.014, HMG20A (UniProt Q9NP66) 0.065, HMGB3 (UniProt O15347) -0.033, HSPA14 (UniProt Q0VDF9) 0.004, IARS (UniProt P41252) -0.018, HTATIP2 isoform 3 (UniProt Q9BUP3) 0.066, HNRNPK isoform 2 (UniProt P61978) 0.051, HS2ST1 (UniProt Q7LGA3) -0.027, HK2 (UniProt P52789) -0.07, IDE (UniProt P14735) -0.005, HNRNPD isoform 4 (UniProt Q14103) -0.036, IARS2 (UniProt Q9NSE4) 0.003, HNRNPC isoform 2 (UniProt P07910) 0.002, HNRNPF (UniProt P52597) -0.034, HINT3 (UniProt Q9NQE9) 0.02, HSPA4L (UniProt O95757) 0.015, HIST2H3A (UniProt Q71DI3) 0.061, HMGN2 (UniProt P05204) 0.046, HMOX2 (UniProt P30519) 0.006, HSPG2 (UniProt P98160) -0.01

What follows are targets tested with COc1cccc2cc(-c3nc([C@H]4CC[C@H](C(=O)O)CC4)n4ncnc(N)c34)[nH]c12 in the same assay as above.
Summary of the method: as §1

log2 fold change, inactive:
HNRNPLL (UniProt Q8WVV9) 0.04, HYOU1 (UniProt Q9Y4L1) -0.072, HSPA1L (UniProt P34931) -0.05, HSP90AB1 (UniProt P08238) -0.012, HMGA1 (UniProt P17096) -0.008, HMGCR isoform 3 (UniProt P04035) -0.045, HSPH1 (UniProt Q92598) -0.073, HIST2H2BF isoform 2 (UniProt Q5QNW6) -0.314, HNRNPU (UniProt Q00839) -0.064, HINT2 (UniProt Q9BX68) 0.057, HOMER1 (UniProt Q86YM7) -0.042, HSPB11 (UniProt Q9Y547) -0.027, HKDC1 (UniProt Q2TB90) 0.113, HUWE1 (UniProt Q7Z6Z7) -0.031, HMG20A (UniProt Q9NP66) -0.021, HMGB3 (UniProt O15347) 0, HSPA14 (UniProt Q0VDF9) -0.094, IARS (UniProt P41252) -0.196, HTATIP2 isoform 3 (UniProt Q9BUP3) 0.054, HNRNPK isoform 2 (UniProt P61978) 0.049, HS2ST1 (UniProt Q7LGA3) 0.041, HK2 (UniProt P52789) 0.005, IDE (UniProt P14735) -0.01, HNRNPD isoform 4 (UniProt Q14103) -0.122, IARS2 (UniProt Q9NSE4) 0.065, HNRNPC isoform 2 (UniProt P07910) -0.065, HNRNPF (UniProt P52597) -0.026, HINT3 (UniProt Q9NQE9) 0.071, HSPA4L (UniProt O95757) 0.003, HIST2H3A (UniProt Q71DI3) -0.367, HMGN2 (UniProt P05204) 0.09, HMOX2 (UniProt P30519) -0.041, HSPG2 (UniProt P98160) 0.067

What follows are targets tested with CS(=O)(=O)CCNCc1ccc(-c2ccc3ncnc(Nc4ccc(OCc5cccc(F)c5)c(Cl)c4)c3c2)o1 [lapatinib] in the same assay as above.
Summary of the method: as §1

log2 fold change, inactive:
HNRNPLL (UniProt Q8WVV9) 0.126, HYOU1 (UniProt Q9Y4L1) -0.036, HSPA1L (UniProt P34931) -0.011, HSP90AB1 (UniProt P08238) -0.001, HMGA1 (UniProt P17096) 0.025, HMGCR isoform 3 (UniProt P04035) -0.066, HSPH1 (UniProt Q92598) 0.001, HIST2H2BF isoform 2 (UniProt Q5QNW6) 0.047, HNRNPU (UniProt Q00839) 0.026, HINT2 (UniProt Q9BX68) -0.069, HOMER1 (UniProt Q86YM7) 0.073, HSPB11 (UniProt Q9Y547) 0.01, HKDC1 (UniProt Q2TB90) -0.03, HUWE1 (UniProt Q7Z6Z7) 0.021, HMG20A (UniProt Q9NP66) -0.088, HMGB3 (UniProt O15347) 0.062, HSPA14 (UniProt Q0VDF9) -0.044, IARS (UniProt P41252) 0.131, HTATIP2 isoform 3 (UniProt Q9BUP3) -0.015, HNRNPK isoform 2 (UniProt P61978) -0.016, HS2ST1 (UniProt Q7LGA3) -0.014, HK2 (UniProt P52789) -0.206, IDE (UniProt P14735) -0.027, HNRNPD isoform 4 (UniProt Q14103) 0.031, IARS2 (UniProt Q9NSE4) 0.006, HNRNPC isoform 2 (UniProt P07910) -0.026, HNRNPF (UniProt P52597) 0.008, HINT3 (UniProt Q9NQE9) 0, HSPA4L (UniProt O95757) -0.014, HIST2H3A (UniProt Q71DI3) 0.065, HMGN2 (UniProt P05204) -0.051, HMOX2 (UniProt P30519) -0.045, HSPG2 (UniProt P98160) 0.061

Reference: the supplement of paper PMC10849652
